The values below are quoted from earlier work in patent US20120142770A1, “PHARMACEUTICAL COMPOSITIONS OF HDAC INHIBITORS AND CHELATABLE METAL COMPOUNDS, AND METAL-HDAC INHIBITOR CHELATE COMPLEXES” (Merck Sharp & Dohme Corp, priority 2006, published 2012).

This data set concerns carcinogen-induced (N-methylnitrosourea) mammary tumors. Conditions: rats, administered in diet over 130 days; cited from earlier work.

`O=C(CCCCCCC(=O)Nc1ccccc1)NO` [Suberoylanilide hydroxamic acid (SAHA), N-hydroxy-N′-phenyloctanediamide]: the “inhibition of tumor development and growth” value was “effective at inhibiting the development and continued growth of carcinogen-induced (N-methylnitrosourea) mammary tumors”.
